# Data reported in the supplement of paper PMC8728848.
# Some of the results follow.
# How the values were obtained:
# Experiment in all cases: glycan array binding signal (z-score within array); higher = stronger binding
# Details in all cases: glycan notation: IUPAC condensed, linker removed
# Fuc(a1-2)Gal = target: Fuc(a1-2)Gal
# How it was run: (§1)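 Glycan array data were curated from 3228 arrays in the Consortium for Functional Glycomics database and kept only where the protein sequence was available. Glycan names were converted to IUPAC-condensed notation, and columns mapping to the same glycan were averaged. The binding signal is a within-array Z-score, averaged across arrays of the same protein sequence at different concentrations or buffers and across linkers. Negative Z-scores can be read as non-binding.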
# Fuc(a1-2)Gal(b1-3)GalNAc = target: Fuc(a1-2)Gal(b1-3)GalNAc
# How it was run: as §1
# [1] = target: Fuc(a1-2)Gal(b1-3)GalNAc(a1-3)[Fuc(a1-2)]Gal(b1-4)Glc
# How it was run: as §1
# [2] = target: Fuc(a1-2)Gal(b1-3)GalNAc(a1-3)[Fuc(a1-2)]Gal(b1-4)GlcNAc
# How it was run: as §1
# [3] = target: Fuc(a1-2)Gal(b1-3)GalNAc(b1-3)Gal
# How it was run: as §1
# [4] = target: Fuc(a1-2)Gal(b1-3)GalNAc(b1-3)Gal(a1-4)Gal(b1-4)Glc
# How it was run: as §1
# [5] = target: Fuc(a1-2)Gal(b1-3)GalNAc(b1-4)[Neu5Ac(a2-3)]Gal(b1-4)Glc
# How it was run: as §1
# Fuc(a1-2)Gal(b1-3)GlcNAc = target: Fuc(a1-2)Gal(b1-3)GlcNAc
# How it was run: as §1
# [6] = target: Fuc(a1-2)Gal(b1-3)GlcNAc(b1-2)Man(a1-3)[Fuc(a1-2)Gal(b1-3)GlcNAc(b1-2)Man(a1-6)]Man(b1-4)GlcNAc(b1-4)GlcNAc
# How it was run: as §1
# [7] = target: Fuc(a1-2)Gal(b1-3)GlcNAc(b1-2)Man(a1-3)[Fuc(a1-2)Gal(b1-3)GlcNAc(b1-2)Man(a1-6)]Man(b1-4)GlcNAc(b1-4)[Fuc(a1-6)]GlcNAc
# How it was run: as §1
# [8] = target: Fuc(a1-2)Gal(b1-3)GlcNAc(b1-3)Gal(b1-4)Glc
# How it was run: as §1
# [9] = target: Fuc(a1-2)Gal(b1-3)GlcNAc(b1-3)GalNAc
# How it was run: as §1
# [10] = target: Fuc(a1-2)Gal(b1-3)GlcNAc(b1-3)[Fuc(a1-2)Gal(b1-3)GlcNAc(b1-6)]GalNAc
# How it was run: as §1
# [11] = target: Fuc(a1-2)Gal(b1-3)GlcNAc(b1-3)[Gal(b1-4)GlcNAc(b1-6)]Gal(b1-4)Glc
# How it was run: as §1
# [12] = target: Fuc(a1-2)Gal(b1-3)GlcNAc(b1-3)[Neu5Ac(a2-6)Gal(b1-4)GlcNAc(b1-6)]Gal(b1-4)Glc
# How it was run: as §1
# [13] = target: Fuc(a1-2)Gal(b1-3)GlcNAc6S
# How it was run: as §1
# [14] = target: Fuc(a1-2)Gal(b1-3)[Fuc(a1-4)]GlcNAc
# How it was run: as §1
# [15] = target: Fuc(a1-2)Gal(b1-3)[Fuc(a1-4)]GlcNAc(b1-2)Man(a1-3)[Fuc(a1-2)Gal(b1-3)[Fuc(a1-4)]GlcNAc(b1-2)Man(a1-3)]Man(b1-4)GlcNAc(b1-4)GlcNAc
# How it was run: as §1
# [16] = target: Fuc(a1-2)Gal(b1-3)[Fuc(a1-4)]GlcNAc(b1-2)Man(a1-3)[Fuc(a1-2)Gal(b1-3)[Fuc(a1-4)]GlcNAc(b1-2)Man(a1-6)]Man(b1-4)GlcNAc(b1-4)[Fuc(a1-6)]GlcNAc(b1-4)[Fuc(a1-6)]GlcNAc
# How it was run: as §1
# [17] = target: Fuc(a1-2)Gal(b1-3)[Fuc(a1-4)]GlcNAc(b1-3)[Fuc(a1-3)[Gal(b1-4)]GlcNAc(b1-6)]Gal(b1-4)Glc
# How it was run: as §1
# [18] = target: Fuc(a1-2)Gal(b1-3)[Fuc(a1-4)]GlcNAc(b1-3)[Gal(b1-4)GlcNAc(b1-6)]Gal(b1-4)Glc
# How it was run: as §1
# Fuc(a1-2)Gal(b1-4)Glc = target: Fuc(a1-2)Gal(b1-4)Glc
# How it was run: as §1
# Fuc(a1-2)Gal(b1-4)Glc6S = target: Fuc(a1-2)Gal(b1-4)Glc6S
# How it was run: as §1
# Fuc(a1-2)Gal(b1-4)GlcNAc = target: Fuc(a1-2)Gal(b1-4)GlcNAc
# How it was run: as §1
# [19] = target: Fuc(a1-2)Gal(b1-4)GlcNAc(b1-2)Man
# How it was run: as §1
# [20] = target: Fuc(a1-2)Gal(b1-4)GlcNAc(b1-2)Man(a1-3)[Fuc(a1-2)Gal(b1-4)GlcNAc(b1-2)Man(a1-6)]Man(b1-4)GlcNAc(b1-4)GlcNAc
# How it was run: as §1
# [21] = target: Fuc(a1-2)Gal(b1-4)GlcNAc(b1-2)Man(a1-3)[Fuc(a1-2)Gal(b1-4)GlcNAc(b1-2)Man(a1-6)]Man(b1-4)GlcNAc(b1-4)[Fuc(a1-6)]GlcNAc
# How it was run: as §1
# [22] = target: Fuc(a1-2)Gal(b1-4)GlcNAc(b1-2)[Fuc(a1-2)Gal(b1-4)GlcNAc(b1-4)]Man(a1-3)[Fuc(a1-2)Gal(b1-4)GlcNAc(b1-2)Man(a1-6)]Man(b1-4)GlcNAc(b1-4)GlcNAc
# How it was run: as §1
# [23] = target: Fuc(a1-2)Gal(b1-4)GlcNAc(b1-3)Gal(b1-4)GlcNAc
# How it was run: as §1
# [24] = target: Fuc(a1-2)Gal(b1-4)GlcNAc(b1-3)Gal(b1-4)GlcNAc(b1-2)Man(a1-3)[Fuc(a1-2)Gal(b1-4)GlcNAc(b1-3)Gal(b1-4)GlcNAc(b1-2)Man(a1-6)]Man(b1-4)GlcNAc(b1-4)GlcNAc
# How it was run: as §1
binder,measurement,setting,value
Clone646PsrP (Streptococcus pneumoniae) (protein) MDHHHHHHHHASENLYFQGAPAINASLNIAKSETKVYTGEGVDSVYRVPIYYKLKVTNDGSKLTFTYTVTYVNPKTNDLGNISSMRPGYSIYNSGTSTQTMLTLGSDLGKPSGVKNYITDKNGRQVLSYNTSTMTTQGSGYTWGNGAQMNGFFAKKGYGLTSSWTVPITGTDTSFTFTPYAARTDRIGINYFNGGGKVVESSTTSQSLSQSKSLSVSAS,glycan array binding signal (z-score),Fuc(a1-2)Gal,0.089
same,glycan array binding signal (z-score),Fuc(a1-2)Gal(b1-3)GalNAc,-0.736
same,glycan array binding signal (z-score),[1],-0.841
same,glycan array binding signal (z-score),[2],0.015
same,glycan array binding signal (z-score),[3],0.047
same,glycan array binding signal (z-score),[4],0.319
same,glycan array binding signal (z-score),[5],-0.297
same,glycan array binding signal (z-score),Fuc(a1-2)Gal(b1-3)GlcNAc,-0.088
same,glycan array binding signal (z-score),[6],1.12
same,glycan array binding signal (z-score),[7],0.624
same,glycan array binding signal (z-score),[8],-0.81
same,glycan array binding signal (z-score),[9],-0.729
same,glycan array binding signal (z-score),[10],1.28
same,glycan array binding signal (z-score),[11],-0.478
same,glycan array binding signal (z-score),[12],-0.574
same,glycan array binding signal (z-score),[13],0.76
same,glycan array binding signal (z-score),[14],-0.684
same,glycan array binding signal (z-score),[15],1.88
same,glycan array binding signal (z-score),[16],-0.681
same,glycan array binding signal (z-score),[17],-1.03
same,glycan array binding signal (z-score),[18],-0.829
same,glycan array binding signal (z-score),Fuc(a1-2)Gal(b1-4)Glc,-0.286
same,glycan array binding signal (z-score),Fuc(a1-2)Gal(b1-4)Glc6S,1.62
same,glycan array binding signal (z-score),Fuc(a1-2)Gal(b1-4)GlcNAc,0.068
same,glycan array binding signal (z-score),[19],1.52
same,glycan array binding signal (z-score),[20],-0.397
same,glycan array binding signal (z-score),[21],0.523
same,glycan array binding signal (z-score),[22],-0.303
same,glycan array binding signal (z-score),[23],-0.74
same,glycan array binding signal (z-score),[24],-0.333

# Given with bars between the fields: part of the list above
binder | measurement | setting | value
Clone646PsrP (Streptococcus pneumoniae) (protein) MDHHHHHHHHASENLYFQGAPAINASLNIAKSETKVYTGEGVDSVYRVPIYYKLKVTNDGSKLTFTYTVTYVNPKTNDLGNISSMRPGYSIYNSGTSTQTMLTLGSDLGKPSGVKNYITDKNGRQVLSYNTSTMTTQGSGYTWGNGAQMNGFFAKKGYGLTSSWTVPITGTDTSFTFTPYAARTDRIGINYFNGGGKVVESSTTSQSLSQSKSLSVSAS | glycan array binding signal (z-score) | [4] | 0.319
same | glycan array binding signal (z-score) | [5] | -0.297
